Reference: patent US20090169546A1
No constants are given. Whether binding was seen depends on the method and setting. Some entries that bind do so weakly or less than the wild type.

T1: HMGB1 peptide 179-186 (human)
T1 sequence (peptide, biotinylated): EKSKKKKE


Legend:
[1] = molecular target: HMGB1 B-box peptide 108-138 (human); assay: ELISA on biotinylated peptides captured on avidin
[2] = molecular target: HMGB1 B-box peptide 108-138 (human); assay: ELISA on biotinylated peptides captured on avidin, FIG. 5C
[3] = molecular target: T1, HMGB1 peptide 179-186 (human); assay: ELISA on biotinylated peptides captured on avidin
[4] = molecular target: T1, HMGB1 peptide 179-186 (human); assay: ELISA on biotinylated peptides captured on avidin, FIG. 5C

Binder	binding [1]	binding [2]	binding [3]	binding [4]
anti-HMG1 antibody G4 (antibody, V domains shown) VH: EVQLLESGGGLVQPGGSLRLSCAASGFTFSWYDMTWVRQAPGKGLEWVSSISPSGGYTKYADSVKGRFTISRDNSKNTLYLQMNSLRAEDTAVYYCTTEFYDYLDVWGKGTTVTVSS VL: DIQMTQSPGTLSLSPGEGATLSCRASQSVSSTYLAWYQQKPGQAPRLLIYEASKRATGTPARFSGSGSGTDFTLSISSLEPEDFAVYYCQHRHNWPPQWTFGQGTKVEVK	binds	binds		
anti-HMG1 antibody S16 (antibody, V domains shown) VH: EVQLLESGGGLVQPGGSLRLSCAASGFTFSWYSMLWVRQAPGKGLEWVSYISPSGGFTNYADSVKGRFTISRDNSKNTLYLQMNSLRAEDTAVYYCARWDYNSGWYYDHWGQGTLVTVSS VL: DIQMTQSPDTLSLSPGERATLSCRASQSVNSRNLAWYQQKPGQAPRLLIYGASTRATGIPDRFSGSVSGTEFTLTISSLQPDDFATYYCQQYNSYFTFGQGTKLEIK			binds	binds
